# Test results as given in paper PMC7067851, “Formation of pre-pore complexes of pneumolysin is accompanied by a decrease in short-range order of lipid molecules throughout vesicle bilayers” (Scientific Reports, 2020).
# Sequences of proteins named here, by UniProt entry; tags and fusion partners are left off.
# UniProt Q04IN8: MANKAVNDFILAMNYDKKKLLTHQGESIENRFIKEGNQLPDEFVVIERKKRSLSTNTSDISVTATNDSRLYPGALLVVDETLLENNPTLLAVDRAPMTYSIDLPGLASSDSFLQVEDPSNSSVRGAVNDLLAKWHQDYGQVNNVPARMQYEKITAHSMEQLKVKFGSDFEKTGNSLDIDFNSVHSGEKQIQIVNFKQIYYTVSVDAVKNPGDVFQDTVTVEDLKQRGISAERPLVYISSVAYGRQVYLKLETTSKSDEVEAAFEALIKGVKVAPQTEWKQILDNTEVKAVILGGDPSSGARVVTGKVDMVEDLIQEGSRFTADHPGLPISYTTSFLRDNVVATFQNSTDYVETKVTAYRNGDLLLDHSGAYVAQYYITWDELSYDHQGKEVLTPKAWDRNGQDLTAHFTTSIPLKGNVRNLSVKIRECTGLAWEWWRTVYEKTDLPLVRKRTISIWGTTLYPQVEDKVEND
# Results are given in words; binding and its absence hold for the method and conditions named. Some results given as binding are weak or reduced against the parent protein; the word gives no strength.
# Target: wild-type pneumolysin (Streptococcus pneumoniae) (UniProt Q04IN8)
# Experiment: negative-stain transmission electron microscopy; protein incubated with unilamellar liposomes (1:1 POPC/chol), stained with 1% w/v uranyl acetate on a copper grid; membrane-bound oligomeric structures visualised; both purified
substance,measurement,value
wild-type pneumolysin (from UniProt Q04IN8 1-471),binding,binds
